Measurements taken from PubChem BioAssay AID652054 (National Center for Advancing Translational Sciences (NCATS), 2013).
Out of some 360,000 compounds screened, about 9,100 (2.5%) were called active. The inconclusive results got no clear call from the source; some entries with a clear call stand among them for comparison. Cut-off read from the data, not from the text of the source: active = max response below about -50%; inconclusive = no clear call, values can overlap the other calls; inactive = above that.

By UniProt entry, the sequences of proteins in these tests, tags left out.
UniProt P35462, whole entry, looked up: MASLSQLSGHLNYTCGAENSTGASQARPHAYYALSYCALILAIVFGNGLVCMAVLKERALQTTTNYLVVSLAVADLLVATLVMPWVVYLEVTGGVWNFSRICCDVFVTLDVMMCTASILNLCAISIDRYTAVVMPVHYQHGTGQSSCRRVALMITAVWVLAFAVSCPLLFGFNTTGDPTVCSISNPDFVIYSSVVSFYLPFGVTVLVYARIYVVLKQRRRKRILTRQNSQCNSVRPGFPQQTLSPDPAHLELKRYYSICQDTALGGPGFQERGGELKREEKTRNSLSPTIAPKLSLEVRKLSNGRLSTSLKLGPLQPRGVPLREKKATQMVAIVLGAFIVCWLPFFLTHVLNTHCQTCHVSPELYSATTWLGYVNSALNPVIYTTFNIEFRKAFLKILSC

These compounds were tested against D(3) dopamine receptor (Homo sapiens) (UniProt P35462) (assay: qHTS of D3 Dopamine Receptor Antagonist: qHTS). Conditions: D3R cells, DiscoveRx beta-arrestin luminescence, antagonist mode; hits give low values.
How it was run: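 Cells plated overnight at 1500 cells/well, then exposed to library compounds with dopamine controls for 90 minutes at 37 degrees C. DiscoveRx reagent added for 30–60 minutes at room temperature; luminescence read, quantitative HTS format.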
% is set by controls: 0 for no effect and ±100 for the full control effect.

Compound	max response, negative = inhibition
CCn1cc(C(=O)NCCc2ccc(OC)cc2)c(=O)c2ccc(C)nc21	inactive: -19.6%
O=S1(=O)CCN2C=C(Br)C=C(Br)C2=N1	inconclusive: -38.2%
CN(C)c1ccc(NC(=O)CN2CCC(O)(c3ccccc3)CC2)cc1	active: -79%
O=C(Nc1ccccc1C(=O)NCC1CCCO1)c1ccc(Cl)cc1Cl (stereo not given)	inactive: 29.1%
O=S(=O)(c1ccc(SCCOc2ccc(Cl)cc2)nc1)N1CCCC1	inconclusive: -41.5%
CCN(CC(=O)NCc1cccs1)C(=O)/C=C/c1ccc(F)cc1	inactive: 29.2%
CC(=O)N1CN(C2CCS(=O)(=O)C2)Cc2c1sc1c2CCCC1 (stereo not given)	active: -55.7%
Nn1c(SCC(=O)NCc2ccc3c(c2)OCO3)nnc1C1CC1	inconclusive: -40.2%
COc1ccc(CNC(=O)C(C#N)c2nc3ccccc3nc2N2CCN(C)CC2)cc1 (stereo not given)	inconclusive: -34.5%
Cc1ccc(S[C@@H](CCN2CC[C@H](C(C)(C)C)CCC2=O)c2ccccc2)cc1	inconclusive: -47%
O=C1C(Cl)=C(Nc2ccccc2O)C(=O)N1CCc1ccccc1	inconclusive: -40.2%
CC(C)c1cc(C(N)=O)c(NC(=O)C2CCC2)s1	inactive: -8.97%
O=C(Nc1ccccc1)c1cc2c(=O)c3ccccc3oc2nc1C(F)(F)F	inactive: 1.01%
O=c1c(CN2CCN(c3cccc(Cl)c3)CC2)coc2c(Cl)cc(Cl)cc12	inconclusive: -46.9%
O=C(c1ccc(Cl)c(Cl)c1)N1CCC(O)(CN2CCOCC2)CC1	inactive: 9.63%
OC(CNCC1CCCO1)Cn1c2ccccc2c2ccccc21 (stereo not given)	inconclusive: -40.3%
S=C(NCc1ccccn1)Nc1ccc(Cl)cc1	inconclusive: -46%
CCN(c1ccccc1)S(=O)(=O)c1ccc(NC(=O)c2nc(S(C)(=O)=O)ncc2Cl)cc1	active: -93.4%
CSc1nnc(NC(=O)c2nc(S(=O)(=O)Cc3cccc(C)c3)ncc2Cl)s1	active: -53.5%
O=C(Nc1ccc2ccccc2c1)N1CCCN(CCOc2ccccc2)CC1	active: -77.8%
S=C(Nc1ccccc1)N1CCN(Cc2ccccc2)CC1	inactive: -1.73%
COc1cc(OC)c(OC)cc1/C=N/n1c(COc2ccccc2)n[nH]c1=S	inconclusive: -32.5%
CNS(=O)(=O)c1cc(C(=O)O)ccc1OC	inactive: 4.69%

Filtered by structure, the compounds so far containing an aryl methoxy group.
Compound	max response, negative = inhibition
CCn1cc(C(=O)NCCc2ccc(OC)cc2)c(=O)c2ccc(C)nc21	inactive: -19.6%
COc1ccc(CNC(=O)C(C#N)c2nc3ccccc3nc2N2CCN(C)CC2)cc1 (stereo not given)	inconclusive: -34.5%
COc1cc(OC)c(OC)cc1/C=N/n1c(COc2ccccc2)n[nH]c1=S	inconclusive: -32.5%
CNS(=O)(=O)c1cc(C(=O)O)ccc1OC	inactive: 4.69%

Filtered by structure: the entries above with fluorine
Compound	max response, negative = inhibition
CCN(CC(=O)NCc1cccs1)C(=O)/C=C/c1ccc(F)cc1	inactive: 29.2%
O=C(Nc1ccccc1)c1cc2c(=O)c3ccccc3oc2nc1C(F)(F)F	inactive: 1.01%

Later entries:

Compound	max response, negative = inhibition
CC(C)Oc1cc(F)ccc1-c1cc(C(=O)NCCCn2ccnc2)[nH]n1	inconclusive: -47.2%
Cc1c(/C=N/Nc2nc3ccccc3[nH]2)c2ccccc2n1C	inconclusive: -31.5%
COc1ccc(C(=O)CCc2ccccc2)cc1	inactive: 6.33%
COc1ccc(-c2cc(-c3ccccc3)nc(NN)n2)cc1OC	inconclusive: -33.6%
O=[N+]([O-])c1ccc(N/N=C/c2cn(Cc3ccc(F)cc3)c3ccccc23)nc1	active: -54.2%
COc1ccc2[nH]c(-c3cccc(F)c3)cc(=O)c2c1	inconclusive: -33%
O=C(Nc1ccc2c(c1)OCCO2)C1c2ccccc2OCC(=O)N1CCc1ccccc1 (stereo not given)	inactive: 1.49%
COCCn1c(SCC(=O)Nc2cc(C)on2)nc2cc(Cl)ccc2c1=O	inactive: -6.48%
O=C(CCC(=O)N1CCOc2ccc(Cl)cc21)NCCCN1CCN(Cc2ccccc2)CC1	active: -59.7%
CN1CCN(c2ccc([N+](=O)[O-])cc2C(=O)c2ccc(Br)cc2)CC1	active: -55.7%
COc1cccc(/C=C/C(=O)NCc2ccc3c(c2)OCO3)c1	inconclusive: -34.9%
O=C(O)CC(C(=O)O)N1C(=O)/C(=C/c2ccc(-c3nc4ccccc4s3)o2)SC1=S (stereo not given)	inconclusive: -49.6%
COC(=O)CCCCCCCC(=O)Nc1nnc(C(F)(F)F)s1	inactive: -8.78%
O=S(=O)(c1ccc(Cl)cc1)N1CCC(N2CCOCC2)CC1	inconclusive: -30.8%
O=C(CNS(=O)(=O)c1ccc(Br)cc1)N1CCN(c2ccc(F)cc2)CC1	inconclusive: -46.1%
O=C(NCCNCCO)C1(C(F)(F)F)C/C(=C\CCO)CCCO1 (stereo not given)	inactive: 33%
CC1Cc2ccccc2N1C(=O)C1CCN(S(=O)(=O)c2cccs2)CC1 (stereo not given)	inactive: 13.3%
O=C(Nc1nc2ccccc2[nH]1)c1ccc(Cl)c(S(=O)(=O)N2CCCC2)c1	inconclusive: -46.2%
Cn1c(SCC(=O)NC(=O)NCc2ccco2)nnc1-c1ccccc1	inconclusive: -49.1%
CC(C)(C)c1cc(C(=O)NC2CC2)n(Cc2ccc(F)cc2)n1	inactive: -10.6%
COc1ncnc2c1ncn2CCCN1CCN(Cc2cccc3ccccc23)CC1	inconclusive: -33.1%

Compound	max response, negative = inhibition
C[C@H]1CCCCO[C@@H](CN(C)C(=O)NC2CCCCC2)[C@@H](C)CN([C@@H](C)CO)C(=O)c2cc(NC(=O)Cc3ccccc3)ccc2O1	inconclusive: -35%
Cc1ccccc1P(=O)(c1ccccc1)c1ccccc1C	inconclusive: -30.5%
CCN=c1sc(C(=O)NCCc2ccccc2)cc(=O)n1CC	inconclusive: -33.6%
CN(C(=O)c1cccc(NC(=O)Cc2cccc(NC(=O)C3CCN(S(=O)(=O)c4cccc([N+](=O)[O-])c4)CC3)c2)c1)C1CC1	inconclusive: -35.8%
OCC[C@@H]1C[C@H](O)[C@@H](O)[C@]2(OCc3ccc(CO)cc32)O1	active: -63.6%
CN(C)c1nc(Oc2ccc(=O)n(C)n2)nc(N2CCOCC2)n1	inconclusive: -36.2%
CCCNC(=O)C1(C)CCCN(Cc2ccc(C)cc2)C1 (stereo not given)	inconclusive: -33.7%
CCCCOC(=O)/C=C\C(=O)NC(N)=O	inconclusive: -34.1%
Cc1cc(C)c(C(O)c2ncc(-c3ccccc3C)[nH]2)c(C)c1 (stereo not given)	active: -55.9%
O=C(Nc1cccc(Cl)c1)NC1CC2CCC(C1)N2Cc1cccs1 (stereo not given)	active: -97.8%
CCOC(=O)C1CCN(CC(=O)N2CCc3ccccc32)CC1	active: -74.4%
O=C(Cc1c(Sc2ccccc2)c2ccccc2n1Cc1ccccc1)NCCO	active: -73%
CCOc1ccc(N=C2C(=O)Nc3ccc(C)c(Br)c32)cc1	inconclusive: -38.2%
O=C(Nc1cccc(CNCCc2c[nH]c3ccccc23)c1)c1ccccc1Cl	active: -96.3%
O=C(O)CCc1nn2cnc3sc4c(c3c2nc1=O)CCCC4	inactive: -19.9%
Cc1ccc(/C(=N/Nc2nc3ccccc3s2)C2=C(O)c3ccccc3C2=O)cc1	inactive: -0.278%
COc1ccccc1C1C([N+](=O)[O-])=CC([N+](=O)[O-])=CN1C (stereo not given)	inactive: -1.11%
CCNc1nc2c(c(=O)n(Cc3ccccc3)c(=O)n2C)n1Cc1ccccc1	inconclusive: -31%
Cc1ccc2[nH]c3c(c2c1)CN(C(C)C)CC3	inconclusive: -48.4%
COCCNC(C)C(=O)Nc1ccc(Br)cc1 (stereo not given)	inconclusive: -37.8%
Cc1ccccc1-c1cc2c(c3c1ccn3C)C1CCC2O1 (stereo not given)	inconclusive: -35%
COc1cc(C)c(Cl)cc1S(=O)(=O)NCCN1CCOCC1	inconclusive: -40.6%
Cc1cc2cc(C(c3nnnn3CC3CCCO3)N3CCCc4ccccc43)c(=O)[nH]c2cc1C (stereo not given)	inconclusive: -35.2%

Compound	max response, negative = inhibition
CSc1cccc(NC(=O)Nc2ccc(Cl)cc2)c1	inconclusive: -39.7%
CCOC(=O)c1ccc(CNCc2ccccc2)cc1	inconclusive: -39.5%
CCOc1ccc2[nH]c(=O)c(CN(CCCO)C(C)=O)cc2c1	inactive: 3.99%
COc1ccc(-c2c(C)nn3c(N)c(C#N)cnc23)cc1OC	inactive: 15.1%
CCO/C(=C/c1sc2ccc(OC)cc2[n+]1CCCS(=O)(=O)[O-])CC	active: -73%
O=C(O)CC1S/C(=N\N=C2\C(=O)Nc3ccccc32)N(c2ccc(O)cc2)C1=O (stereo not given)	inactive: -19.7%
OC(COc1ccc(Cl)cc1)CN1C2=NCCCN2c2ccccc21 (stereo not given)	inconclusive: -37.3%
CCN(CC)c1ccc(/C=C2/C(=O)c3ccc(C(=O)O)cc3C2=O)cc1	active: -56.2%
O=C(NCCN1CCN(Cc2ccccc2)CC1)Nc1cc(Cl)cc(Cl)c1	inactive: -9.57%
Cc1cc(-c2ccco2)n(CC(=O)NCCCc2ccccc2)n1	inactive: 12.6%
Cc1cc(Cl)n2c(nc3cc(F)c(F)cc32)c1C#N	inconclusive: -40.9%
Cc1ccc(Cl)c(NC(=O)COC(=O)c2ccccc2C(=O)c2ccc(Cl)c([N+](=O)[O-])c2)c1Cl	active: -71.1%
COc1ccc(CC(N)c2csc(Nc3ccccn3)n2)cc1 (stereo not given)	inconclusive: -33.8%
Cc1nc(SCC(=O)Nc2ccc(F)cc2)c2oc3ccccc3c2n1	inactive: 6.34%
NC(=S)N=Nc1c(O)[nH]c2c(Br)cc(Br)cc12	inactive: -28.6%
CCOC(=O)C1CCN(CCC(=O)Nc2ccccc2)CC1	inconclusive: -31.2%
Nc1[nH]c(C(=O)c2ccccc2)c(-c2ccccc2Cl)c1C(=O)c1ccccc1	inconclusive: -31.3%
COc1ccc(-c2cccc(NS(=O)(=O)c3ccc([N+](=O)[O-])cc3)c2)nn1	inconclusive: -34.3%
Cc1ccc([C@H]2C(C(=O)O)=CC[C@@H](c3ccc(C(C)C)cc3)N2S(=O)(=O)c2ccc(C)cc2)cc1	active: -63.8%
O=C(CCn1cccn1)N1CCCC(N2CCN(c3cccc(Cl)c3)CC2)C1 (stereo not given)	inconclusive: -36%
CCCc1cc(=O)[nH]c(SCC(=O)N(C)CC(=O)Nc2ccc(C)cc2)n1	inactive: -10.6%
